# Measured values taken from article PMC8065335, “An integrative drug repositioning framework discovered a potential therapeutic agent targeting COVID-19” (Signal Transduction and Targeted Therapy, 2021).
# Tested on: SARS-CoV-2
# Experiment: in vitro anti-SARS-CoV-2 virus infection assay in Vero E6 cells, viral yield in supernatant by qRT-PCR
# Format: cell-based
# Conditions: Severe acute respiratory syndrome coronavirus 2, Vero C1008, read-out: % Inhibition of SARS-CoV-2 replication
structure (smiles),measurement,value
CCS(=O)(=O)N1CC(CC#N)(n2cc(-c3ncnc4[nH]ccc34)cn2)C1 [Baricitinib],inhibition at 3.2 µM,-6.63%
